{"source": "PubChem BioAssay AID1347075", "about": "(National Center for Advancing Translational Sciences (NCATS), 2019)", "note": "The campaign covered roughly 400,000 compounds. About 5,500 (1.4%) were called active. The shares of active, inactive and inconclusive entries below differ from those in the screen. The call rests on the fitted dose curve; in most records, active means well fitted cell-killing curve with a large enough effect; inconclusive means small, poorly fitted or top-dose-only effect, or effect the other way; inactive means flat fitted curve, though single readings scatter. Potencies of inconclusive entries are doubtful fits and often do not repeat. On the % scale 0 is the no-effect control and ±100 the full control effect; potency means the concentration at half of the fitted maximal effect.", "data": [{"test": "qHTS assay for MDR1-selective chemotherapeutics: Primary screen using the parental adenocarcinoma cell KB-3-1; further: nearly all actives have a fitted effect of over 60% in size", "conditions": "KB-3-1 viability, CellTiter-Glo ATP luminescence, 72 h; activity change, negative = cytotoxic: at 46.1 µM (top of the series)", "how_it_was_run": "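Multi-concentration cytotoxicity screen in KB-3-1 cells grown in DMEM lacking phenol red with 10% FBS. After 72 h at 37 °C with compound, ATP-dependent luminescence was recorded.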", "values": [{"smiles": "O=C(Cn1c(NCCCO)nc2ccccc21)c1ccco1", "Potency": "inactive"}, {"smiles": "Cc1cc(C(=O)NCc2ccc(F)cc2)c2ccccc2n1", "Potency": "inactive"}, {"smiles": "CC(C)(C)n1nnnc1C(c1ccc(Cl)cc1)N(Cc1cccnc1)Cc1ccco1", "note": "(stereo unspecified)", "Potency": "inconclusive: 18.4 µM [cytotoxic, single point]"}, {"smiles": "COc1ccccc1-c1cc(C(=O)N/N=C/c2cccs2)c2ccccc2n1", "Potency": "inconclusive: 29.1 µM [cytotoxic, single point]"}, {"smiles": "CCc1ccc(-c2cc(C)no2)cc1S(=O)(=O)N1CCN(c2cccc(Cl)c2)CC1", "Potency": "active: 3.66 µM"}, {"smiles": "CCOc1ccc2nc(NS(=O)(=O)Cc3ccccc3)sc2c1", "Potency": "inconclusive: 4.61 µM [cytotoxic, full curve, poor fit]"}, {"smiles": "CC(C)N1CCN(Cc2ccccc2-c2ccco2)CC1CCO", "note": "(stereo unspecified)", "Potency": "inconclusive: 10.3 µM [cytotoxic, partial curve, poor fit]"}, {"smiles": "Cc1ccc(-c2noc(CSc3nnc(-c4ccc(Cl)cc4)n3C)n2)cc1", "Potency": "inactive"}, {"smiles": "CCOC(=O)C(=O)NNc1ccc(F)cc1", "Potency": "inconclusive: 18.4 µM [cytotoxic, single point]"}, {"smiles": "O=[N+]([O-])c1ccc(Cl)cc1N1CCCC1", "Potency": "inactive"}, {"smiles": "Cc1cccc(NC(=O)[C@H](NC(=O)[C@@H]2Cc3ccccc3CN2)c2ccccc2)c1", "Potency": "inactive"}, {"smiles": "CCSCCc1nnc(NC(=O)Nc2cccc(C(F)(F)F)c2)s1", "Potency": "inconclusive: 16.4 µM [cytotoxic, single point]"}, {"smiles": "CC(C)C[C@H]1CN([C@@H](Cc2ccccc2)CN2CCC[C@H]2CN2C(=O)C(=O)NC[C@@H]2Cc2ccc(O)cc2)C(=O)C(=O)N1CCc1ccccc1", "Potency": "inactive"}, {"smiles": "O=C(Nc1cc(-c2ccccc2)[nH]n1)c1ccccc1", "Potency": "inconclusive: 13 µM [cytotoxic, partial curve, poor fit]"}, {"smiles": "CNc1nnc(CSc2nc3ccccc3s2)s1", "activity change, negative = cytotoxic": "inconclusive: 23.7%"}, {"smiles": "O=C(Nc1ccc(F)cc1)c1nc(S(=O)(=O)Cc2ccccc2)ncc1Cl", "Potency": "active: 5.17 µM"}, {"smiles": "Cc1cccc(Cn2c(=O)n(CCCC(=O)NCc3ccco3)c(=O)c3ccccc32)c1", "Potency": "active: 9.2 µM"}, {"smiles": "O=C(NC1CCOC1=O)c1ccccc1", "note": "(stereo unspecified)", "Potency": "inactive"}, {"smiles": "O=C(/C=C/c1ccc([N+](=O)[O-])o1)Nc1cccc([S+](=O)([O-])Nc2ccccc2F)c1", "Potency": "inactive"}, {"smiles": "CCCCCCCCCC[n+]1cccc(Br)c1", "Potency": "inconclusive: 7.31 µM [cytotoxic, partial curve, poor fit]"}, {"smiles": "O=C(Cc1ccccc1)NCC(=O)OCC(=O)c1ccc2ccccc2c1", "Potency": "inactive"}, {"smiles": "O=C1C(Cl)=C(NC(=O)c2ccccc2)C(=O)C(Cl)=C1NC(=O)c1ccccc1", "Potency": "inconclusive: 23.1 µM [cytotoxic, single point]"}, {"smiles": "CCOC(=O)CCC(=O)Nc1ccc(S(=O)(=O)N2CCC(C)CC2)cc1", "Potency": "inconclusive: 0.0103 µM [rising, full curve]"}, {"smiles": "Cc1ccc(N2C(=O)CC(n3ccnc3)C2=O)cc1C", "note": "(stereo unspecified)", "Potency": "inactive"}, {"smiles": "O=C(CNc1cccc(S(=O)(=O)N2CCCCC2)c1)Nc1ccccc1F", "Potency": "inconclusive: 18.4 µM [cytotoxic, single point]"}, {"smiles": "O=C(CCc1ccccc1)NCC(c1ccco1)N1CCc2ccccc21", "note": "(stereo unspecified)", "Potency": "active: 3.66 µM"}, {"smiles": "CC(Sc1nnc(N)s1)C(=O)NC1CCCCC1C", "note": "(stereo unspecified)", "Potency": "inconclusive: 25.9 µM [rising, partial curve, poor fit]"}, {"smiles": "CCN(CC)C(=O)c1sc(NC(=O)C2c3ccccc3Oc3ccccc32)c(C(=O)OC(C)C)c1C", "Potency": "inactive"}, {"smiles": "Oc1c(Cl)cc(Cl)cc1/C=N/NC(=S)NC1CC2C=CC1C2", "note": "(stereo unspecified)", "Potency": "inconclusive: 13 µM [cytotoxic, partial curve]"}, {"smiles": "COc1ccc(NC(=O)NNC(=O)COc2ccc(Cl)cc2C)cc1OC", "activity change, negative = cytotoxic": "inconclusive: 32.1%"}, {"smiles": "COc1ccc(NS(=O)(=O)c2ccc3[nH]c4c(c3c2)CCCC4)c(OC)c1", "Potency": "inactive"}, {"smiles": "CCCc1sc(N/N=C/c2ccccn2)nc1-c1ccc(Br)cc1", "Potency": "inconclusive: 16.4 µM [cytotoxic, single point]"}, {"smiles": "Cc1csc(SCC(=O)c2cc(C)n(Cc3cccs3)c2C)n1", "Potency": "inconclusive: 29.1 µM [cytotoxic, single point]"}, {"smiles": "O=C(Nc1cccc(F)c1)Nc1ccc2c(c1)OCO2", "Potency": "inconclusive: 29.1 µM [cytotoxic, single point]"}, {"smiles": "COc1cc2[nH]c(=O)n(CCCCCC(=O)N3CC=C(c4ccccc4)CC3)c(=O)c2cc1OC", "Potency": "inconclusive: 18.4 µM [cytotoxic, single point]"}, {"smiles": "C(=C\\c1ccco1)/c1ccc2ccccc2n1", "Potency": "inactive"}, {"smiles": "CCOC(=O)Cc1c(C)nc2c(-c3ccc(Cl)cc3)c(C)[nH]n2c1=O", "Potency": "inconclusive: 18.4 µM [cytotoxic, partial curve]"}, {"smiles": "CCOC(=O)CN(C(=O)COc1nc(C)cc(C)c1C#N)c1ccc(F)cc1", "Potency": "inconclusive: 0.0073 µM [cytotoxic, full curve]"}, {"smiles": "C=CCN(C(=O)CCC(=O)Nc1cc(C)on1)C(C(=O)NC1CCCC1)c1ccc(CC)cc1", "note": "(stereo unspecified)", "Potency": "inactive"}, {"smiles": "Cn1c(=O)c2c(nc(NCCc3ccccc3)n2Cc2ccccc2)n(C)c1=O", "Potency": "inconclusive: 20.6 µM [cytotoxic, single point]"}, {"smiles": "CCC(C)NC(=O)c1ccccc1NC(=O)CN1C(=O)c2ccccc2S1(=O)=O", "note": "(stereo unspecified)", "Potency": "inconclusive: 0.0206 µM [cytotoxic, full curve]"}, {"smiles": "CCCC(C(=O)Nc1cccc(S(=O)(=O)N2CCCC2)c1)c1ccccc1", "note": "(stereo unspecified)", "Potency": "inconclusive: 29.1 µM [cytotoxic, single point]"}, {"smiles": "O=C(Nc1ccccc1Cl)c1cc(S(=O)(=O)N2CCCCC2)ccc1N1CCOCC1", "Potency": "inconclusive: 29.1 µM [cytotoxic, single point]"}, {"smiles": "COc1ccc(NC(=O)CSC2CCCCC2)cc1", "Potency": "inactive"}, {"smiles": "CCOC(=O)N1CCN(C(=O)CSc2nc3c([nH]c4ccccc43)c(=O)n2C)CC1", "activity change, negative = cytotoxic": "inconclusive: 13.3%"}, {"smiles": "O=C(c1ccc(-c2nc3ccccc3s2)o1)N1CCN(c2ccccc2O)CC1", "Potency": "inconclusive: 23.1 µM [rising, partial curve, poor fit]"}, {"smiles": "O=C(NNC1=Nc2ccccc2SC1)c1ccc(F)cc1", "Potency": "inconclusive: 14.6 µM [cytotoxic, partial curve, poor fit]"}, {"smiles": "C[C@H](CO)N1C[C@H](C)[C@H](CN(C)C(=O)c2ccccn2)Oc2cc(C#Cc3ccc(F)cc3)ccc2S1(=O)=O", "Potency": "inconclusive: 16.4 µM [cytotoxic, partial curve, poor fit]"}, {"smiles": "Cc1cc(N2CCN(C)CC2)nc2ccc(NC(=O)c3ccc(C(C)(C)C)cc3)cc12", "Potency": "inconclusive: 29.1 µM [cytotoxic, single point]"}, {"smiles": "CC1(C)C(=O)Nc2ccccc2N1C(=O)COC(=O)COc1ccc(C#N)cc1", "Potency": "inactive"}, {"smiles": "COC(=O)c1ccc(NC(=O)C(=O)c2cn(CC(=O)N3CCOCC3)c3ccccc23)cc1", "Potency": "inactive"}, {"smiles": "COc1cc(/C=C2\\C(=O)ON=C2c2ccccc2)cc(Cl)c1O", "Potency": "inconclusive: 32.6 µM [cytotoxic, partial curve, poor fit]"}, {"smiles": "C=CC(=O)N1CCC[C@@H](n2nc(-c3ccc(Oc4ccccc4)cc3)c3c(N)ncnc32)C1", "Potency": "inconclusive: 63.1 µM [cytotoxic, single point]"}, {"smiles": "CCOc1cc2[nH]c(=S)n(CCC(=O)N3CCc4ccccc4C3)c(=O)c2cc1OCC", "Potency": "inactive"}, {"smiles": "CC1(C)CC(N2CCCC2)=CC(=[N+]2CCCCCC2)C1", "Potency": "inconclusive: 0.0259 µM [cytotoxic, full curve, poor fit]"}, {"smiles": "C=CCn1c(SCc2c(C)noc2C)nc2sc3c(c2c1=O)CCCC3", "Potency": "active: 18.4 µM"}, {"smiles": "CCn1c(C)nc2cc(S(=O)(=O)C(F)(F)F)ccc21", "Potency": "inconclusive: 23.1 µM [cytotoxic, partial curve, poor fit]"}, {"smiles": "Cc1cc(C)nc(Sc2nc(Nc3ccccc3)nc(Sc3nc(C)cc(C)n3)n2)n1", "Potency": "active: 20.6 µM"}, {"smiles": "COc1ccc(NS(=O)(=O)c2cc(C(=O)O)ccc2C)cc1", "Potency": "inactive"}, {"smiles": "Cc1cccc(Nc2nnc(SCC(=O)NC(=O)Nc3ccc4c(c3)OCCO4)s2)c1", "Potency": "inconclusive: 20.6 µM [cytotoxic, single point]"}, {"smiles": "O=C(Nc1ccc(Cl)cc1)Nc1ccccc1Sc1ncc([N+](=O)[O-])s1", "Potency": "inconclusive: 29.1 µM [cytotoxic, single point]"}, {"smiles": "CCCC(=O)N1N=C(c2ccccc2)CC1c1cn(C)c2ccccc12", "note": "(stereo unspecified)", "Potency": "inactive"}, {"smiles": "Nc1[nH]n2c(=O)cc(-c3ccccc3)nc2c1N=Nc1ccccc1", "Potency": "active: 8.2 µM"}, {"smiles": "COc1cc(C(=O)N/N=C/c2ccc3c(c2)c2ccccc2n3C)ccc1O", "Potency": "inconclusive: 18.4 µM [cytotoxic, single point]"}, {"smiles": "COc1cccc(C2=CC(c3ccccc3F)n3ncc(C(=O)Nc4ccc(C)cc4)c3N2)c1", "note": "(stereo unspecified)", "Potency": "inconclusive: 29.1 µM [cytotoxic, single point]"}, {"smiles": "CC(C)(C)n1nnnc1C(c1ccccc1)N1CCN(c2ccc(C(F)(F)F)cn2)CC1", "note": "(stereo unspecified)", "Potency": "inconclusive: 16.4 µM [cytotoxic, single point]"}, {"smiles": "Cc1cc(C(=O)OCC(=O)N2CC(C)OC(C)C2)c(C)n1-c1ccccc1", "note": "(stereo unspecified)", "Potency": "inconclusive: 0.326 µM [rising, full curve]"}, {"smiles": "O=C1CCCCC1Sc1nnc(-c2ccc3c(c2)OCO3)o1", "note": "(stereo unspecified)", "Potency": "inactive"}, {"smiles": "Cc1ccc(-n2cc(CNCCCn3ccnc3C)c(-c3ccc(F)cc3)n2)cc1", "Potency": "inconclusive: 14.6 µM [cytotoxic, partial curve, poor fit]"}, {"smiles": "Cc1sc(NC(=O)c2ccco2)c(C(c2cccnc2)N2CCN(c3ccc(F)cc3)CC2)c1C", "note": "(stereo unspecified)", "Potency": "inconclusive: 2.91 µM [cytotoxic, full curve]"}, {"smiles": "CCN(c1ccc(NC(=O)c2ccc(N3CCCC3=O)cc2)cc1)C(C)C", "Potency": "inconclusive: 8.2 µM [cytotoxic, partial curve, poor fit]"}]}]}
